From patent US20070077215A1, “Administration of phenylfurymethylthiazolidine-2,4-dione or phenylthienymethylthiazolidine-2,4-dione compounds for promoting and/or inducing and/or stimulating the pigmentation of keratinous substances and/or limiting their depigmentation and/or their whitening” (L'OREAL, priority 2005, published 2007) come the findings set out here.

A short description of this data set: Comparative test of coloring of bleached locks of hair. Conditions: 100 mg product in water/ethanol/aqueous ammonia (salt form), lock impregnated, 40° C. for 1 hour.

`O=C1N=C(O)/C(=C/c2ccc(-c3ccc(C(=O)O)cc3)o2)S1` [compound according to the prior art, Ionic compound derived from 4-{5-[(2,4-disulfo-1,3-thiazolidin-5-ylidene)methyl]-2-furyl}benzoic acid (Z isomer), reference compound]: the “coloring of locks of hair by the product” value was “colors the locks of hair”.
With `O=C1N=C(O)C(Cc2ccc(-c3ccc(C(=O)O)cc3)o2)S1` (centres unmarked) [compound according to the invention] the entry was “in contrast”.
